Read-outs that look alike come from different tables or passages of the source. No constants are given. Whether binding was seen depends on the method and setting. Binding seen in cells or lysates may run through a third protein. These calls come from enrichment with a bait or labelling near it, and not all partners need be listed. For some of these results: Sequences can lack the tags named with a protein.
T1: Myc-EhRdRP1 (E. histolytica) (UniProt C4M6W7)
T1 sequence: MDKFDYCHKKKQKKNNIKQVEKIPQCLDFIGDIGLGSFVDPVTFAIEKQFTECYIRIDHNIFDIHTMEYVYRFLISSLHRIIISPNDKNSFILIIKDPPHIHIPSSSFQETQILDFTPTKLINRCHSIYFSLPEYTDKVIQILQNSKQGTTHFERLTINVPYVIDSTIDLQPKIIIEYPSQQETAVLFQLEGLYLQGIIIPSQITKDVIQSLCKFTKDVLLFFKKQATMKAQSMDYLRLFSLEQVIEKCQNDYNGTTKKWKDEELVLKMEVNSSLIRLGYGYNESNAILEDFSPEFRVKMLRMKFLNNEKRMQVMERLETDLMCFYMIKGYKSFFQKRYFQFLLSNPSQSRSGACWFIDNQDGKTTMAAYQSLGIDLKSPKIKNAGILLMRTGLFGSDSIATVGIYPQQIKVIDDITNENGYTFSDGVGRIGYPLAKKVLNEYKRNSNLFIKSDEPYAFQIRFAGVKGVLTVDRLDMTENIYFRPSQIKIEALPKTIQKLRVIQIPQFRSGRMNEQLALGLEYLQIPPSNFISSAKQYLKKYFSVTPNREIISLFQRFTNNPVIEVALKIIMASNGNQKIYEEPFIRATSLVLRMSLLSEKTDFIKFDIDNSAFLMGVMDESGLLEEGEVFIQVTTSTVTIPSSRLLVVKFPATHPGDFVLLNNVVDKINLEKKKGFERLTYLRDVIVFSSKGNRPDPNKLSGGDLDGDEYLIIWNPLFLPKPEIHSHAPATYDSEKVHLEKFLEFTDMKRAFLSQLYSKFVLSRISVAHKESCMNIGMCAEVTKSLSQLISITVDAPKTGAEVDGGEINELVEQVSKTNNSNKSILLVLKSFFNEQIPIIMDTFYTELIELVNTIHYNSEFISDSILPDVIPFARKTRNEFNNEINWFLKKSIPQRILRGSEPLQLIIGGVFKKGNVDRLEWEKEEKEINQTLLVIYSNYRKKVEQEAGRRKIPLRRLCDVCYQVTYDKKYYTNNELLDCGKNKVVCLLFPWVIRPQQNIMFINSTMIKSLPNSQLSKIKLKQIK

Chains of the proteins cited; added tags and fusions are not shown. Lines headed by an entry give the natural chain unless they say otherwise; changes in a name come on top.
UniProt C4LTS8: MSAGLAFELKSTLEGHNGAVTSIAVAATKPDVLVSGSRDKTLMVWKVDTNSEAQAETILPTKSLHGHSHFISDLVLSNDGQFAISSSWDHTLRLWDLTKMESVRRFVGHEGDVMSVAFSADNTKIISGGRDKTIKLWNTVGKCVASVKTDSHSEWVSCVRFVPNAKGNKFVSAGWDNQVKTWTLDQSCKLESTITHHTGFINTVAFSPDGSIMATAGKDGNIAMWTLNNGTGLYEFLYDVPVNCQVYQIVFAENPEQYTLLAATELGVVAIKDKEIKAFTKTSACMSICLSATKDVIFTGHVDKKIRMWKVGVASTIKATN

T2: Myc-EhRdRP2 (E. histolytica) (UniProt C4M631)
T2 sequence: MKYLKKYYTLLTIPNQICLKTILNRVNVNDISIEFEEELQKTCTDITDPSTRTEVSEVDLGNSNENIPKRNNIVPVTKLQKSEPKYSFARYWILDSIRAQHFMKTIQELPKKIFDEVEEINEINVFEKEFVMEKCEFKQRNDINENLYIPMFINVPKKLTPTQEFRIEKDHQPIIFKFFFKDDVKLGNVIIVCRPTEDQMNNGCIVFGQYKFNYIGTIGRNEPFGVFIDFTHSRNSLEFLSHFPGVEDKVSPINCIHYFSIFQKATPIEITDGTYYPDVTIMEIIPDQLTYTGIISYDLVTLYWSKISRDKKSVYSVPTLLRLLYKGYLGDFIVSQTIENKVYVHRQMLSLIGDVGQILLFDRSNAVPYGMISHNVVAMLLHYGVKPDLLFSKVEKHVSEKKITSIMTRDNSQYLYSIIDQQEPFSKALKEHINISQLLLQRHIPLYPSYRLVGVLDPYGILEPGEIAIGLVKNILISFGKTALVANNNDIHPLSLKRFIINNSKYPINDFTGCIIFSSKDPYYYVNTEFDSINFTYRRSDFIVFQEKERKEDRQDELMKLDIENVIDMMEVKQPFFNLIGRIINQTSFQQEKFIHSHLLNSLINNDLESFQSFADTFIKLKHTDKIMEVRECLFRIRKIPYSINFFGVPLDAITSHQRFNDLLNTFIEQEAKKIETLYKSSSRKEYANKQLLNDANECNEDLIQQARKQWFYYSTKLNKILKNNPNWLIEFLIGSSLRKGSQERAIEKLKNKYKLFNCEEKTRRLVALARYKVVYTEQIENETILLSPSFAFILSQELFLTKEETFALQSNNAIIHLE


Legend:
[1] = target: T1, Myc-EhRdRP1 (E. histolytica); assay: affinity purification with mass spectrometry; anti-c-Myc agarose IP from whole-cell lysate of E. histolytica lines overexpressing the Myc-tagged bait (EhAgo2-2 WT, its two mutants, EhRdRP1, EhRdRP2), 2 h at 4°C, six low-stringency washes; LC-MS/MS in triplicate; nonribosomal hits in at least 2 of 3 data sets, exclusive or ≥3-fold enriched against the Luc control
[2] = target: T2, Myc-EhRdRP2 (E. histolytica); assay: as above
[3] = target: T1, Myc-EhRdRP1 (E. histolytica); assay: as above; remark: listed apart in the source
[4] = target: Myc-GNB2L1 (E. histolytica) (UniProt C4LTS8); assay: affinity purification with mass spectrometry; anti-c-Myc agarose IP from whole-cell lysate of E. histolytica lines overexpressing Myc-NAP07, Myc-NAP12, Myc-EBP-1, Myc-GNB2L1 or Myc-Tudor-like protein; LC-MS/MS in duplicate; hits in both replicates and exclusive against the Luc control

binding [1] | Molecule | binding [2] | binding [3] | binding [4]
binds | guanine nucleotide-binding protein subunit beta 2-like 1 (endogenous) (from UniProt C4LTS8) | – | – | –
– | enhancer binding protein-1 (endogenous) (protein, UniProt C4M5C4 1-306) MTTLYVSHLDYSLKVEDVQNAFKTYNPKEVKIISTPIGYSRGFAFIEFATPQEAEKALEMDRHTIGKMEIKVQKALPKEETTTERKMNRRGFKGKRNTRKRHLVKRTNEVTDNMLFIKNLPFAITEEKLKEMFSKFGVVEITLIKTHRKKGNVTKNNGIAFITVKTAEEQKKAIAEMNNFEVEGRKITVAAAYKKVENKQTTKKTNEPKSLSETNVFVKNLPFTLTDEGFKKLFEKYDVVEATIVKRHNKKLNVDRSKGYGFVTFKTAEQQKKAIAEMDNFEVEGRKITVTSAYQRAEKKEETTSN | binds | binds | binds

Source: publication PMC8546589
